Source: article PMC11747444

Chains of the proteins cited; added tags and fusions are not shown.
UniProt P14635: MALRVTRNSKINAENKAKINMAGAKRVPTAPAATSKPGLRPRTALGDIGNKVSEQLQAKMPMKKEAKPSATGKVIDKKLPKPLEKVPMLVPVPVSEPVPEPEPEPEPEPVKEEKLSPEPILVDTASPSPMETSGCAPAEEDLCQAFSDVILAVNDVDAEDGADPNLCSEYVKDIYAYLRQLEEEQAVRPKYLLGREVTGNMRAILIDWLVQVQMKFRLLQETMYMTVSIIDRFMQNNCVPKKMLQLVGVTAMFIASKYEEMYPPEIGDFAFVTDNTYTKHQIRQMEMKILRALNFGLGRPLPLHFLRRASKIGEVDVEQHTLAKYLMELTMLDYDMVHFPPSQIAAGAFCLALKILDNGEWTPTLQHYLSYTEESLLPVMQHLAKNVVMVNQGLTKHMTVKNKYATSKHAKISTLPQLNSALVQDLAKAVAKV

B1: G2 and S-phase expressed 1 (GTSE1) (protein, UniProt Q9NYZ3 1-739)
chain: MEGGGGRDEPSACRAGDVNMDDPKKEDILLLADEKFDFDLSLSSSSANEDDEVFFGPFGHKERCIAASLELNNPVPEQPPLPTSESPFAWSPLAGEKFVEVYKEAHLLALHIESSSRNQAAQAAKPEDPRSQGVERFIQESKLKINLFEKEKEMKKSPTSLKRETYYLSDSPLLGPPVGEPRLLASSPALPSSGAQARLTRAPGPPHSAHALPRESCTAHAASQAATQRKPGTKLLLPRAASVRGRSIPGAAEKPKKEIPASPSRTKIPAEKESHRDVLPDKPAPGAVNVPAAGSHLGQGKRAIPVPNKLGLKKTLLKAPGSTSNLARKSSSGPVWSGASSACTSPAVGKAKSSEFASIPANSSRPLSNISKSGRMGPAMLRPALPAGPVGASSWQAKRVDVSELAAEQLTAPPSASPTQPQTPEGGGQWLNSSCAWSESSQLNKTRSIRRRDSCLNSKTKVMPTPTNQFKIPKFSIGDSPDSSTPKLSRAQRPQSCTSVGRVTVHSTPVRRSSGPAPQSLLSAWRVSALPTPASRRCSGLPPMTPKTMPRAVGSPLCVPARRRSSEPRKNSAMRTEPTRESNRKTDSRLVDVSPDRGSPPSRVPQALNFSPEESDSTFSKSTATEVAREEAKPGGDAAPSEALLVDIKLEPLAVTPDAASQPLIDLPLIDFCDTPEAHVAVGSESRPLIDLMTNTPDMNKNVAKPSPVVGQLIDLSSPLIQLSPEADKENVDSPLLKF
B2: MgcRacGAP (RGAP1) (protein, UniProt Q9H0H5 1-632)
chain: MDTMMLNVRNLFEQLVRRVEILSEGNEVQFIQLAKDFEDFRKKWQRTDHELGKYKDLLMKAETERSALDVKLKHARNQVDVEIKRRQRAEADCEKLERQIQLIREMLMCDTSGSIQLSEEQKSALAFLNRGQPSSSNAGNKRLSTIDESGSILSDISFDKTDESLDWDSSLVKTFKLKKREKRRSTSRQFVDGPPGPVKKTRSIGSAVDQGNESIVAKTTVTVPNDGGPIEAVSTIETVPYWTRSRRKTGTLQPWNSDSTLNSRQLEPRTETDSVGTPQSNGGMRLHDFVSKTVIKPESCVPCGKRIKFGKLSLKCRDCRVVSHPECRDRCPLPCIPTLIGTPVKIGEGMLADFVSQTSPMIPSIVVHCVNEIEQRGLTETGLYRISGCDRTVKELKEKFLRVKTVPLLSKVDDIHAICSLLKDFLRNLKEPLLTFRLNRAFMEAAEITDEDNSIAAMYQAVGELPQANRDTLAFLMIHLQRVAQSPHTKMDVANLAKVFGPTIVAHAVPNPDPVTMLQDIKRQPKVVERLLSLPLEYWSQFMMVEQENIDPLHVIENSNAFSTPQTPDIKVSLLGPVTTPEHQLLKTPSSSSLSQRVRSTLTKNTPRFGSKSKSATNLGRQGNFFASPMLK

Biological target: Flag-tagged wild-type cyclin B1 (human) (UniProt P14635)
Test: affinity purification with mass spectrometry; α-Flag IP from nocodazole-arrested HeLa cells, uninduced or expressing Flag-cyclin B1^wt or ^mut; in-gel digest, DIA mass spectrometry, three independent experiments

Binder | binding
B1 | binds
B2 | binds

No constants are given. Whether binding was seen depends on the method and setting. Binding seen in cells or lysates may run through a third protein. These calls come from enrichment with a bait or labelling near it, and not all partners need be listed.
